According to the supplement of paper PMC6078165:
The reference is the same well before dosing, and untreated signal decays as well.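 Labels refer to human fibroblasts, largely primary: uterine (C12385, HUF), lung (H6013), bone (Hs27A), adrenal (HADF), skin (WS1), plus mammary HMF and breast cancer-associated Hs343T. Cancer lines are basal-like or mesenchymal-like triple-negative breast cancer. The paper counts as hits responses shifting over 3x the replicate standard deviation. The tissue of the other fibroblasts is not given here.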

Tested on: MDAMB231
Assay: relative JC-1 red fluorescence (viability) vs pre-drug, coculture with fibroblast (fraction); higher = more viable cancer cells
Description: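 JC-1 labelled TNBC cells cocultured 1:1 (1,500 cells each) with CellTrace Violet stained primary or stromal fibroblasts in 384-well plates in FluoroBrite medium, treated with one of 42 anticancer drugs at 0.1, 1, 10 or 100 uM. JC-1 red fluorescence (mitochondrial integrity in cancer cells only) was read by plate reader every 8 h for 72 h. Values are normalised to each well's pre-drug value. The stock of one drug was tenfold lower, so its dose labels may be too high.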

O=NN(CCCl)C(=O)NCCCl [Carmustine]
relative JC-1 red fluorescence
Conditions | 8 h | 16 h | 24 h | 32 h | 40 h | 48 h | 56 h | 64 h | 72 h
0.1 µM, coculture fibroblast: C12385 | 0.7682 | 0.7294 | 0.64 | 0.618 | 0.563 | 0.5299 | 0.485 | 0.475 | 0.447
0.1 µM, coculture fibroblast: H6013 | 0.882 | 0.822 | 0.777 | 0.754 | 0.712 | 0.698 | 0.681 | 0.655 | 0.625
0.1 µM, coculture fibroblast: H6019 | 0.7485 | 0.657 | 0.614 | 0.573 | 0.509 | 0.489 | 0.438 | 0.416 | 0.378
0.1 µM, coculture fibroblast: H6076 | 0.882 | 0.803 | 0.728 | 0.702 | 0.642 | 0.603 | 0.573 | 0.554 | 0.542
0.1 µM, coculture fibroblast: H6231 | 0.9 | 0.797 | 0.724 | 0.677 | 0.613 | 0.582 | 0.528 | 0.506 | 0.48
0.1 µM, coculture fibroblast: HADF | 0.909 | 0.886 | 0.837 | 0.799 | 0.772 | 0.731 | 0.722 | 0.697 | 0.657
0.1 µM, coculture fibroblast: HCFa | 0.892 | 0.8473 | 0.7797 | 0.731 | 0.679 | 0.625 | 0.5974 | 0.5613 | 0.514
0.1 µM, coculture fibroblast: HCPF | 0.8832 | 0.7931 | 0.703 | 0.689 | 0.636 | 0.596 | 0.556 | 0.528 | 0.502
0.1 µM, coculture fibroblast: HHSteC | 0.8978 | 0.8673 | 0.817 | 0.767 | 0.716 | 0.687 | 0.643 | 0.624 | 0.579
0.1 µM, coculture fibroblast: HMF | 0.8609 | 0.7652 | 0.702 | 0.67 | 0.614 | 0.5716 | 0.533 | 0.5137 | 0.498
0.1 µM, coculture fibroblast: HPFa | 0.9325 | 0.893 | 0.819 | 0.766 | 0.728 | 0.679 | 0.608 | 0.569 | 0.518
0.1 µM, coculture fibroblast: HUF | 0.831 | 0.736 | 0.7314 | 0.606 | 0.542 | 0.519 | 0.472 | 0.458 | 0.434
0.1 µM, coculture fibroblast: Hs5 | 0.932 | 0.888 | 0.835 | 0.81 | 0.767 | 0.72 | 0.684 | 0.659 | 0.64
0.1 µM, coculture fibroblast: Hs27A | 0.881 | 0.8301 | 0.7686 | 0.724 | 0.67 | 0.596 | 0.593 | 0.565 | 0.513
0.1 µM, coculture fibroblast: Hs343T | 0.883 | 0.77795 | 0.671 | 0.627 | 0.561 | 0.514 | 0.448 | 0.422 | 0.388
0.1 µM, coculture fibroblast: WS1 | 0.753 | 0.698 | 0.574 | 0.56 | 0.5033 | 0.4681 | 0.413 | 0.387 | 0.355
1 µM, coculture fibroblast: C12385 | 0.773 | 0.753 | 0.733 | 0.692 | 0.615 | 0.593 | 0.559 | 0.563 | 0.547
1 µM, coculture fibroblast: H6013 | 0.9 | 0.82 | 0.78 | 0.75 | 0.701 | 0.682 | 0.656 | 0.637 | 0.587
1 µM, coculture fibroblast: H6019 | 0.733 | 0.66 | 0.643 | 0.59 | 0.555 | 0.54 | 0.486 | 0.464 | 0.414
1 µM, coculture fibroblast: H6076 | 0.836 | 0.791 | 0.757 | 0.731 | 0.6991 | 0.669 | 0.654 | 0.638 | 0.632
1 µM, coculture fibroblast: H6231 | 0.8849 | 0.7652 | 0.717 | 0.667 | 0.609 | 0.578 | 0.534 | 0.517 | 0.488
1 µM, coculture fibroblast: HADF | 0.8955 | 0.81809 | 0.77696 | 0.735 | 0.698 | 0.6609 | 0.636 | 0.618 | 0.563
1 µM, coculture fibroblast: HCFa | 0.893 | 0.834 | 0.793 | 0.732 | 0.68414 | 0.6329 | 0.598 | 0.563 | 0.515
1 µM, coculture fibroblast: HCPF | 0.842 | 0.737 | 0.701 | 0.679 | 0.632 | 0.592 | 0.564 | 0.538 | 0.515
1 µM, coculture fibroblast: HHSteC | 0.891 | 0.858 | 0.818 | 0.774 | 0.728 | 0.706 | 0.661 | 0.632 | 0.59
1 µM, coculture fibroblast: HMF | 0.824 | 0.739 | 0.679 | 0.631 | 0.579 | 0.536 | 0.503 | 0.487 | 0.469
1 µM, coculture fibroblast: HPFa | 0.948 | 0.889 | 0.837 | 0.777 | 0.755 | 0.7117 | 0.642 | 0.609 | 0.537
1 µM, coculture fibroblast: HUF | 0.822 | 0.709 | 0.736 | 0.616 | 0.557 | 0.537 | 0.483 | 0.48 | 0.467
1 µM, coculture fibroblast: Hs5 | 0.885 | 0.8014 | 0.738 | 0.684 | 0.634 | 0.576 | 0.543 | 0.517 | 0.484
1 µM, coculture fibroblast: Hs27A | 0.878 | 0.8104 | 0.767 | 0.731 | 0.679 | 0.61 | 0.613 | 0.588 | 0.529
1 µM, coculture fibroblast: Hs343T | 0.824 | 0.697 | 0.651 | 0.626 | 0.5778 | 0.536 | 0.5 | 0.484 | 0.462
1 µM, coculture fibroblast: WS1 | 0.708 | 0.648 | 0.608 | 0.547 | 0.503 | 0.474 | 0.442 | 0.438 | 0.415
